Measurements reported in PubChem BioAssay AID330 (DTP/NCI, 2004).
The list is a part of this screen's results and no random one: it covers a few groups of compounds. Other doses and runs of a compound may be missing. T/C gives the treated animals as a percentage of the vehicle group. Some entries give survivors of the animals treated and no T/C: the source holds a T/C of zero for them, seemingly a mark for toxic or unscored doses. Some doses without a T/C left all or most animals alive at the check, yet need not have been tolerated: the source hardly ever lists a survival T/C far under the control, and the zero likely stands for such cases as well. Counts of survivors are from the toxicity check (mostly the fifth day) where no day follows; animals may have died later. Schedules are NCI's codes, taken here to give the interval after Q, in days (D) or hours (H), and the number of doses after X. Some complexes appear as separate parts, the way the source draws them; their charges need not add up. Where survival is the endpoint, the PubChem record calls one and a half times the control and up active, and a quarter to a half above the control has no call in these data; cut-offs in other NCI protocols can differ. Some T/C values are followed by the survivors on the day toxicity was checked, most often the fifth; without a count or a note in brackets, all were alive then. Some doses were run more than once; their values stand side by side, smallest first. Some entries show no survivor count and are marked so; the dose need not have been tolerated.

Tested on: P388 leukemia ip, CD2F1 mice, survival T/C
Experiment: NCI In Vivo Anticancer Drug Screen. Data for tumor model P388 Leukemia (intraperitoneal) in CD2F1 (CDF1) mice
Details: T/C endpoint: median survival time, higher T/C = longer survival
[1] = dose: 50.0 mg/kg/injection, schedule: Q01DX009 (ip), vehicle: saline
[2] = dose: 100.0 mg/kg/injection, schedule: Q01DX009 (ip), vehicle: saline
[3] = dose: 200.0 mg/kg/injection, schedule: Q01DX009 (ip), vehicle: saline
[4] = dose: 50.0 mg/kg/injection, schedule: Q01DX005 (ip), vehicle: saline
[5] = dose: 100.0 mg/kg/injection, schedule: Q01DX005 (ip), vehicle: saline
[6] = dose: 50.0 mg/kg/injection, schedule: Q01DX005 (ip), vehicle: Klucel (hydroxypropylcellulose) (HPC)
[7] = dose: 100.0 mg/kg/injection, schedule: Q01DX005 (ip), vehicle: Klucel (hydroxypropylcellulose) (HPC)
[8] = dose: 200.0 mg/kg/injection, schedule: Q01DX005 (ip), vehicle: Klucel (hydroxypropylcellulose) (HPC)
[9] = dose: 200.0 mg/kg/injection, schedule: Q01DX009 (ip), vehicle: Klucel (hydroxypropylcellulose) (HPC)
[10] = dose: 12.5 mg/kg/injection, schedule: Q01DX009 (ip), vehicle: saline with Tween-80
[11] = dose: 25.0 mg/kg/injection, schedule: Q01DX009 (ip), vehicle: saline with Tween-80
[12] = dose: 50.0 mg/kg/injection, schedule: Q01DX009 (ip), vehicle: saline with Tween-80
[13] = dose: 100.0 mg/kg/injection, schedule: Q01DX009 (ip), vehicle: saline with Tween-80
[14] = dose: 200.0 mg/kg/injection, schedule: Q01DX009 (ip), vehicle: saline with Tween-80
[15] = dose: 60.0 mg/kg/injection, schedule: Q01DX005 (ip), vehicle: saline with Tween-80
[16] = dose: 120.0 mg/kg/injection, schedule: Q01DX005 (ip), vehicle: saline with Tween-80
[17] = dose: 240.0 mg/kg/injection, schedule: Q01DX005 (ip), vehicle: saline with Tween-80
[18] = dose: 100.0 mg/kg/injection, schedule: Q04DX003 (ip), vehicle: saline
[19] = dose: 200.0 mg/kg/injection, schedule: Q04DX003 (ip), vehicle: saline

Q: For `[N-]=[N+]=N/C=C/c1ccc([N+](=O)[O-])o1`, which T/C (dose: 12.5 mg/kg/injection, schedule: Q01DX009 (ip), vehicle: saline) is on record?
A: 99 % of control

Q: What about the T/C (dose: 25.0 mg/kg/injection, schedule: Q01DX009 (ip), vehicle: saline) of the same compound?
A: 117 % of control

Q: And the T/C [1]?
A: 103 and 107 % of control [4 of 6 alive]

Q: And the survivor count (dose: 50.0 mg/kg/injection, schedule: Q01DX009 (ip), vehicle: suspension in saline)?
A: 2 of 6

Q: And the T/C [2]?
A: 112 % of control

Q: What about the T/C (dose: 100.0 mg/kg/injection, schedule: Q01DX009 (ip), vehicle: suspension in saline) of the same compound?
A: 110 % of control

Q: And the T/C [3]?
A: 99 % of control [5 of 6 alive]

Q: What about the T/C (dose: 200.0 mg/kg/injection, schedule: Q01DX009 (ip), vehicle: suspension in saline) of the same compound?
A: 107 % of control [5 of 6 alive]

Q: `COC(=O)C(Cc1ccccc1)NP(C)(=O)OC` (centres undefined) was tested. Which T/C (dose: 25.0 mg/kg/injection, schedule: Q01DX005 (ip), vehicle: saline) did it give?
A: 97 % of control

Q: And the T/C [4]?
A: 98 % of control

Q: And the T/C [5]?
A: 97 % of control

Q: `CC(C)N(CCCl)/N=N/c1nc2nc[nH]c(=O)c2[nH]1` was tested. Which T/C [6] did it give?
A: 100 % of control

Q: And the T/C [7]?
A: 100 % of control

Q: What about the T/C [8] of the same compound?
A: 100 % of control

Q: Which results are given for `CCc1cccc2ccc(N(CCBr)CCBr)cc12`?
A: T/C (dose: 25.0 mg/kg/injection, schedule: Q01DX009 (ip), vehicle: Klucel (hydroxypropylcellulose) (HPC)): 132 % of control; T/C (dose: 50.0 mg/kg/injection, schedule: Q01DX009 (ip), vehicle: Klucel (hydroxypropylcellulose) (HPC)): 144 and 157 % of control; T/C (dose: 100.0 mg/kg/injection, schedule: Q01DX009 (ip), vehicle: Klucel (hydroxypropylcellulose) (HPC)): 86 and 153 % of control; T/C [9]: 134 % of control; survivor count [9]: 5 of 6; survivor count (dose: 400.0 mg/kg/injection, schedule: Q01DX009 (ip), vehicle: Klucel (hydroxypropylcellulose) (HPC)): 6 of 6

Q: What does the source list for `CC(C)OP(C)(=O)O.[Er]`?
A: T/C [10]: 100 % of control [survivor count not shown]; T/C [11]: 96 % of control [survivor count not shown]; T/C [12]: 87 % of control [survivor count not shown]

Q: What does the source list for `N/C=N/P(=O)(OCc1ccccc1)OCc1ccccc1`?
A: T/C [6]: 95 % of control; T/C [7]: 101 % of control; T/C [8]: 100 % of control [5 of 6 alive]

Q: Which T/C [10] does the source give for `COc1ccc2c(c1)C1(C)CCC(O2)C12CO2` (centres undefined) here?
A: 93 and 111 % of control

Q: What about the T/C [11] of the same compound?
A: 117 % of control

Q: What about the T/C [12] of the same compound?
A: 100 % of control

Q: With `CC1=NP(=O)(Oc2ccccc2)N=C(C)N1` as the compound, how does the T/C [6] read?
A: 102 % of control

Q: And the T/C [7]?
A: 116 % of control

Q: And the T/C [8]?
A: 106 % of control

Q: For `C/C1=C2N=C(/C=C3N=C(/C(C)=C4\[N-]C(C(CC(N)=O)C4(C)CCC(=O)NCC(C)OP(=O)(O)OC4C(CO)OC(n5cnc6cc(C)c(C)cc65)C4O)C4(C)N=C1C(CCC(N)=O)C4(C)CC(N)=O)C(CCC(N)=O)C\3(C)C)C(CCC(N)=O)C/2(C)CC(N)=O.[C-]#N.[Co+2]` (centres undefined), which T/C [1] is on record?
A: 100 % of control

Q: What about the T/C [2] of the same compound?
A: 106 % of control

Q: And the T/C [3]?
A: 106 % of control

Q: Which results are given for `CN1CC2CC(C1)CN(C)C2.F[P-](F)(F)(F)(F)F`?
A: T/C [12]: 104 % of control; T/C [13]: 109 % of control; survivor count [14]: 4 of 6

Q: How did the T/C [15] turn out when `COc1ccc(C2N=C(NN=C(CCl)CCl)SP2(=O)Nc2ncccn2)c(OC)c1` (centres undefined) was run?
A: 104 % of control

Q: What about the T/C [16] of the same compound?
A: 114 % of control

Q: What about the T/C [17] of the same compound?
A: 103 % of control

Q: Which results are given for `CN(CCCl)CC1OC(O)C(O)C(O)C1O` (centres undefined)?
A: T/C (dose: 25.0 mg/kg/injection, schedule: Q01DX009 (ip), vehicle: saline sonified): 172 % of control; T/C (dose: 33.0 mg/kg/injection, schedule: Q01DX009 (ip), vehicle: saline sonified): 166 % of control; T/C (dose: 50.0 mg/kg/injection, schedule: Q01DX009 (ip), vehicle: saline sonified): 166 and 195 % of control; T/C (dose: 50.0 mg/kg/injection, schedule: Q04DX003 (ip), vehicle: saline): 129 % of control; T/C (dose: 66.0 mg/kg/injection, schedule: Q04DX003 (ip), vehicle: saline sonified): 125 % of control; survivor count (dose: 75.0 mg/kg/injection, schedule: Q01DX009 (ip), vehicle: saline sonified): 6 of 6; survivor count (dose: 100.0 mg/kg/injection, schedule: Q01DX009 (ip), vehicle: saline sonified): 1 of 6; T/C (dose: 100.0 mg/kg/injection, schedule: Q04DX003 (ip), vehicle: saline sonified): 104 % of control; T/C [18]: 158 % of control; survivor count (dose: 150.0 mg/kg/injection, schedule: Q04DX003 (ip), vehicle: saline sonified): 5 of 6; survivor count [19]: 5 of 6

Q: For `NC(=O)c1[nH]cnc1/N=N\N(CCCl)CCCl`, which T/C [10] is on record?
A: 137 % of control [9 of 10 alive]

Q: What about the T/C [11] of the same compound?
A: 137 % of control

Q: What about the T/C [12] of the same compound?
A: 175 % of control

Q: And the T/C [13]?
A: 269 % of control

Q: And the T/C [14]?
A: 233 % of control

Q: And the T/C (dose: 400.0 mg/kg/injection, schedule: Q01DX009 (ip), vehicle: saline with Tween-80)?
A: 93 % of control

Q: Which T/C (dose: 50.0 mg/kg/injection, schedule: Q01DX005 (ip), vehicle: saline with Tween-80) does the source give for `O=[N+]([O-])c1cc([N+](=O)[O-])c(O)c([N+](=O)[O-])c1.c1ccc(CN2CCCCC2)cc1` here?
A: 101 % of control

Q: And the T/C (dose: 100.0 mg/kg/injection, schedule: Q01DX005 (ip), vehicle: saline with Tween-80)?
A: 106 % of control

Q: And the T/C (dose: 200.0 mg/kg/injection, schedule: Q01DX005 (ip), vehicle: saline with Tween-80)?
A: 94 % of control [4 of 6 alive]

Q: Which T/C [15] does the source give for `CN1CCC(O)(c2ccccc2)CC1.O=[N+]([O-])c1cc([N+](=O)[O-])c(O)c([N+](=O)[O-])c1` here?
A: 97 % of control

Q: What about the T/C [16] of the same compound?
A: 105 % of control

Q: And the T/C [17]?
A: 102 % of control [5 of 6 alive]

Q: `CCOC(=O)NC(C)(CCC(C)(NC(=O)OCC)P(=O)(O)Nc1ncccn1)P(=O)(O)Nc1ncccn1` (centres undefined) was tested. Which T/C (dose: 60.0 mg/kg/injection, schedule: Q01DX005 (ip), vehicle: saline) did it give?
A: 101 % of control

Q: And the T/C (dose: 120.0 mg/kg/injection, schedule: Q01DX005 (ip), vehicle: saline)?
A: 101 % of control

Q: What about the T/C (dose: 240.0 mg/kg/injection, schedule: Q01DX005 (ip), vehicle: saline) of the same compound?
A: 97 % of control

Q: How did the T/C [4] turn out when `CC(C)OP(C)(O)=S` (centres undefined) was run?
A: 92 % of control

Q: What about the T/C [5] of the same compound?
A: 94 % of control [4 of 6 alive]

Q: And the survivor count (dose: 200.0 mg/kg/injection, schedule: Q01DX005 (ip), vehicle: saline)?
A: 1 of 6

Q: Which T/C [18] does the source give for `COc1c([N+](=O)[O-])c(N)c([N+](=O)[O-])c(OC)c1[N+](=O)[O-]` here?
A: 113 % of control

Q: What about the T/C [19] of the same compound?
A: 105 % of control

Q: What about the T/C (dose: 400.0 mg/kg/injection, schedule: Q04DX003 (ip), vehicle: saline) of the same compound?
A: 123 % of control

Q: Which T/C [15] does the source give for `CN(N=O)C1=NC(c2ccccc2Cl)P(=O)(Nc2ncccn2)O1` (centres undefined) here?
A: 100 % of control

Q: What about the T/C [16] of the same compound?
A: 100 % of control

Q: What about the T/C [17] of the same compound?
A: 106 % of control

Q: How did the T/C (dose: 50.0 mg/kg/injection, schedule: Q04DX003 (ip), vehicle: Klucel (hydroxypropylcellulose) (HPC)) turn out when `Clc1ccc(N(CCBr)CCBr)cc1` was run?
A: 103 % of control

Q: And the T/C (dose: 100.0 mg/kg/injection, schedule: Q04DX003 (ip), vehicle: Klucel (hydroxypropylcellulose) (HPC))?
A: 100 % of control [5 of 6 alive]

Q: What about the T/C (dose: 200.0 mg/kg/injection, schedule: Q04DX003 (ip), vehicle: Klucel (hydroxypropylcellulose) (HPC)) of the same compound?
A: 123 % of control [5 of 6 alive]
